In paper PMC6884552, “Glycogen branching enzyme controls cellular iron homeostasis via Iron Regulatory Protein 1 and mitoNEET” (Nature Communications, 2019):
Changes are numbered by the printed parent chain. No constants are given. Whether binding was seen depends on the method and setting. In cells and extracts the contact can be indirect. Here binding means that the protein was enriched with, or labelled near, the bait; the list need not be complete. Where a sequence is shown, tags or fusion partners need not be part of it.

Assays:
[1] = biological target: T1, transgenic Flag-tagged Drosophila IRP1A 3R3Q expressed in flies (Drosophila) (UniProt Q9VCV4); assay: affinity purification with mass spectrometry; samples from four fly strains expressing Flag-tagged transgenes IRP1A^C450S, IRP1B^C447S, IRP1A^3R3Q or IRP1B^3R3Q; anti-Flag immunoprecipitation; tissue per sample in Supplementary Table 2
T1 sequence: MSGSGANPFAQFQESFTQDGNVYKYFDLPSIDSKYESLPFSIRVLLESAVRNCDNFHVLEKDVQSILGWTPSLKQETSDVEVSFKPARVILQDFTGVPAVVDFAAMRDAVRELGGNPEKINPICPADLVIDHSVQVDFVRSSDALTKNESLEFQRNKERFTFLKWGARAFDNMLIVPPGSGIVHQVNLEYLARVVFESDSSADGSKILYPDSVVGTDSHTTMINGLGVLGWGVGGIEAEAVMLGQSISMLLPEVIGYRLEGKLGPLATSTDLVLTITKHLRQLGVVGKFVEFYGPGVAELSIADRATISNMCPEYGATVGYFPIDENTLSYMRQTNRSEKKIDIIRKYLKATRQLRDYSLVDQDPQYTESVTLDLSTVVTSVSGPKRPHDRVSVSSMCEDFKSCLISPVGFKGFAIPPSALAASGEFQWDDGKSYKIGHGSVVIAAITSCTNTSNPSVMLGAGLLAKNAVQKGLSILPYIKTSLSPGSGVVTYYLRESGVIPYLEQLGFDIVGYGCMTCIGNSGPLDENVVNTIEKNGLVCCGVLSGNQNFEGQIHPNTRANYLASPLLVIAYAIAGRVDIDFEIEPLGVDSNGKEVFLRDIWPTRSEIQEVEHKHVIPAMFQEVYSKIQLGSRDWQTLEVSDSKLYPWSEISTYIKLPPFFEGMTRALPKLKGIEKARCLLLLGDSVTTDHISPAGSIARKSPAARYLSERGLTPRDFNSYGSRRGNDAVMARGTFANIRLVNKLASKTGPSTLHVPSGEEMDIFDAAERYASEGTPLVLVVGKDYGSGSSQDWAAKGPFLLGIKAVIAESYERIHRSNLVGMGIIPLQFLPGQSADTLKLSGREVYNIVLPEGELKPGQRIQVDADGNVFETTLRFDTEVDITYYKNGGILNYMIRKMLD

[2] = biological target: T2, Drosophila IRP1A in larvae (endogenously Flag-tagged IRP1A^3F as bait; endogenous IRP1A as prey) (Drosophila (endogenous in larvae)) (UniProt Q9VCV4); assay: affinity purification with mass spectrometry; prothoracic gland cells purified from dissected brain-ring gland complexes (CD8.Venus, anti-CD8 beads); 0.2% formaldehyde cross-linking; anti-Flag immunoprecipitation as for whole body
T2 sequence: T1 sequence with Q549R, Q554R, Q793R

- binding [1]: binds
- binding [2]: binds
B1: HA-tagged Drosophila Cisd2 (natural protein, UniProt Q9VAM6 1-133, looked up)
chain: MEPISHLVKSSLPNYLSSLPVPDSIGGWFKLSFKDWLALIPPTVVVAGLGYTAYLAYCPAARASCAAKNSGRCNNHIRKNEPKVVDMIDVEDIAEKAAFCRCWKTKNWPYCDGSHGEHNKQTGDNVGPIVIKK
notes: Drosophila Cisd2, cDNA RE49709; also called mitoNEET; Cisd2/mitoNEET; source: S2 cells, transfected, in lysate
